# Measurements reported in PubChem BioAssay AID1403 (National Center for Advancing Translational Sciences (NCATS), 2008).
# The source calls these results inconclusive, neither active nor inactive. Calls come from the whole dose curve; as a rule, active = well fitted curve in the direction sought with a large enough effect in the signal ratio; inconclusive = small, poorly fitted or top-dose-only effect, or a change in a side signal; inactive = no such curve, though single readings can be large or run the other way; the % refers to the signal ratio. A potency beside an inconclusive call is a rough fit, not a confirmed value. “Side channel” marks fits to a control or component signal instead of the main read-out.
# Biological target: Follicle-stimulating hormone receptor (Homo sapiens) (UniProt P23945)
# Test: Counterscreen for Agonists of Thyroid Stimulating Hormone Receptor: HTRF Activity in a Follicle Stimulating Hormone Receptor Cell Line
# Conditions: HEK293-FSHR cells, cAMP HTRF, 30 min
# Description: NIH Chemical Genomics Center [NCGC] NIH Molecular Libraries Screening Centers Network [MLSCN] MLSCN Grant: 1 X01 MH080680-01 PI Name: Dr. Marvin Gershengorn, NIH NCGC Assay Overview: Confirmation of Thyroid Stimulating Hormone Receptor Agonists TSH is an alpha/beta heterodimeric glycoprotein hormone secreted from the anterior pituitary gland which belongs to the glycoprotein hormone family. The actions of TSH are mediated by a seven-transmembrane receptor, which upon TSH binding couples preferentially to the G-alpha (s) protein (Gs), resulting in activation of adenylate cyclase and increase in cyclic adenosine 3', 5' monophosphate (cAMP). The TSH receptor (THSR) is mainly expressed in thyroid follicular cells and regulates their growth and function. […] In order to confirm specificity of the compounds to the TSHR, a confirmatory assay was conducted on a similar family member, the Follicle Stimulating Hormone (FSH) receptor, transfected into a HEK 293 cell line, using an orthogonal detection technology to measure cAMP stimulation: antibody-based Homogeneous Time Resolved Fluorescence (HTRF).
# NCGC Assay Protocol Summary: Homogeneous Time Resolved Fluorescence (HTRF) cAMP Assay. […] Plates were measured using the Envision plate reader (PerkinElmer, Boston, MA) with excitation at 330 nm and emissions of 615 nm and 660 nm. […]
compound,measurement,value
NC(=O)c1nsc(C(=O)N(CC(=O)NC2CCCCC2)Cc2ccc3c(c2)OCO3)c1N,Potency,"inconclusive: 5.01 µM [side channel, rising, partial curve, poor fit]"
